Results on one molecule are retold here after article PMC11842024, “Reversible male contraception by targeted inhibition of serine/threonine kinase 33” (Science (New York, N.Y.), 2024).

In the test the target is human STK33 kinase domain (serine/threonine kinase 33) (human) (UniProt Q9BYT3). In words: crystal structure; co-crystal of the STK33 kinase domain with the inhibitor CDD-2211, 2.7 Å; one dimer per asymmetric unit; both purified.

No constants are given. Whether binding was seen depends on the method and setting. Some entries that bind do so weakly or less than the wild type.

B1: human STK33 kinase domain (serine/threonine kinase 33) (domain or fragment, UniProt Q9BYT3 99-383)
chain: GKVPHIRIENGAAIEEIYTFGRILGKGSFGIVIEATDKETETKWAIKKVNKEKAGSSAVKLLEREVNILKSVKHEHIIHLEQVFETPKKMYLVMELCEDGELKEILDRKGHFSENETRWIIQSLASAIAYLHNNDIVHRDLKLENIMVKSSLIDDNNEINLNIKVTDFGLAVKKQSRSEAMLQATCGTPIYMAPEVISAHDYSQQCDIWSIGVVMYMLLRGEPPFLASSEEKLFELIRKGELHFENAVWNSISDCAKSVLKQLMKVDPAHRITAKELLDNQWLTG
For B1, the binding result was “binds”.
